Measured values reported in article doi:10.1101/2024.09.17.613393.
Numbering of substitutions follows the chain as printed. No constants are given. Whether binding was seen depends on the method and setting. Binding seen in cells or lysates may run through a third protein. Some binding calls cover weakened binding; strength is not graded here. For some of these results: Sequences can lack the tags named with a protein. One block for each substance: values may come before it.

The chains behind the UniProt entries cited, without tags or fusion partners.
UniProt Q9QZL0: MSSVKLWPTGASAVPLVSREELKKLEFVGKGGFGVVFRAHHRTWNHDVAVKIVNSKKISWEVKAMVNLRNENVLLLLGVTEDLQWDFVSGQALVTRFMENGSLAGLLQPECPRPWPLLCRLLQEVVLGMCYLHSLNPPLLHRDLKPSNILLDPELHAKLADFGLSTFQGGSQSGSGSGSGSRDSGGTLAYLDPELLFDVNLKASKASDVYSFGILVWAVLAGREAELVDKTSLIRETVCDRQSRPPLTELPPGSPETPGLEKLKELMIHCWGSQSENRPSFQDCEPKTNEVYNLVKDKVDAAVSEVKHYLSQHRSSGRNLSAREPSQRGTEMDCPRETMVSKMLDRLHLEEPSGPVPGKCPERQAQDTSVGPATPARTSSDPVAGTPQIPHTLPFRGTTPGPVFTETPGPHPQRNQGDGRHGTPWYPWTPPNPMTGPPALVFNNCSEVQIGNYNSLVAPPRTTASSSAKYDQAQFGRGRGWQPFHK
UniProt Q13546: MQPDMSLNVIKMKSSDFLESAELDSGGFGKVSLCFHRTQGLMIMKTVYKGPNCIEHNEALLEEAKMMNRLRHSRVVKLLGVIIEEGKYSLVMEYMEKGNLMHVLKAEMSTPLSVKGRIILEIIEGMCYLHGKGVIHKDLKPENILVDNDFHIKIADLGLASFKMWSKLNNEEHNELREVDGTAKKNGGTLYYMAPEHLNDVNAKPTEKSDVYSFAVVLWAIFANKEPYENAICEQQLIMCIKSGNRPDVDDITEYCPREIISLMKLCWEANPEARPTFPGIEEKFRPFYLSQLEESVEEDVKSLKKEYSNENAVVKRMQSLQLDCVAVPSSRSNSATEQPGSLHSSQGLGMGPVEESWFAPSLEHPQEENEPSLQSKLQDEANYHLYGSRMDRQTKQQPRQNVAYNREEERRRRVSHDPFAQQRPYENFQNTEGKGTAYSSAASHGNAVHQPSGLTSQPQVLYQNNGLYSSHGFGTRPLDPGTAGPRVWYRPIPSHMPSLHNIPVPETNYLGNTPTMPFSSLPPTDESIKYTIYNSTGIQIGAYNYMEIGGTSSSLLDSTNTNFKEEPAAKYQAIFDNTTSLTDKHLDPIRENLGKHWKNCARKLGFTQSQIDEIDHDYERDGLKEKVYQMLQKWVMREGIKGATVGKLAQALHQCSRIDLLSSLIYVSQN

Legend:
Test in all cases: co-IP
[1] = target: T1, FLAG-tagged human ZBP1 (Flag-hZBP1) (human) (UniProt Q9H171)
T1 sequence: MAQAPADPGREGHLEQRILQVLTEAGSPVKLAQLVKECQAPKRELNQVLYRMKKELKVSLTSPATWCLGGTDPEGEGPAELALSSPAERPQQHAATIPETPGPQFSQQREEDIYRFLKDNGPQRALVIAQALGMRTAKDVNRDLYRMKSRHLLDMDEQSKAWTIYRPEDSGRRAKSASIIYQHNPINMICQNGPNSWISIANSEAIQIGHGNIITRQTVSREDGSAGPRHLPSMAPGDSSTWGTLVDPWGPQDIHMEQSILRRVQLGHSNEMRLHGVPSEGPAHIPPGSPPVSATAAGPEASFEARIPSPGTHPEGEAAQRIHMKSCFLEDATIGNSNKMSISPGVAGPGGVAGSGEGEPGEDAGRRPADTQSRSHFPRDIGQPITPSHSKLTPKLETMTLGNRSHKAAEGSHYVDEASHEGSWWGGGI

[2] = target: T2, Flag-mZBP1 expressed in MEFs (mouse) (UniProt Q9QY24)
T2 sequence: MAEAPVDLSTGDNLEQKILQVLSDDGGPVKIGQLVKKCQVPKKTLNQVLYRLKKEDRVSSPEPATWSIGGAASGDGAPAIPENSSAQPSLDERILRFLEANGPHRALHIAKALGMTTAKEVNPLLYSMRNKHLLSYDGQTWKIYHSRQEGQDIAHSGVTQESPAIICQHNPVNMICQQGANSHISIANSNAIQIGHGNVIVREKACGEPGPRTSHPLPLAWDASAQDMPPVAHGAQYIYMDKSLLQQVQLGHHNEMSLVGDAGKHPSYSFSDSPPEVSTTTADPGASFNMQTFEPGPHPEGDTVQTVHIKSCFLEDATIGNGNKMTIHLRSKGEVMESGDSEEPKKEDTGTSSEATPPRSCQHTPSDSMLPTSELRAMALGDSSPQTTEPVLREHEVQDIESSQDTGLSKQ

[3] = target: T3, hZBP1 mutant Zα1 (mutZα1) (human) (UniProt Q9H171)
T3 sequence: T1 sequence with N46D, Y50A

[4] = target: T4, hZBP1 mutant RHIM B (mutRHIMB) (human) (UniProt Q9H171)
T4 sequence: T1 sequence with V264A, Q265A, L266A, G267A

binding [1]: binds
Substance: mouse RIPK3 (mRIPK3) reconstituted in HT29-hZBP1 (RIPK3 KO) cells (from UniProt Q9QZL0 1-486)

binding [2]: binds
Substance: RIPK3 (mouse, endogenous in MEFs) (from UniProt Q9QZL0 1-486)

binding [3]: binds
binding [4]: binds
Substance: RIPK1 (human, endogenous) (from UniProt Q13546 1-671)
